Results reported in PubChem BioAssay AID651640 (Broad Institute, 2012).
Several values for one entry are separate records, joined by “and”; a condition that tells them apart may be missing. Identical values can stand only once. The campaign covered roughly 350,000 compounds. About 6,000 (1.7%) were called active. Inconclusive results, whose numbers are uncertain, are shown with a selection of clear calls. Cut-off read from the data, not from the text of the source: active = CPE inhibition above about 20% (passing the limit was not always enough); inconclusive = no clear call, values can overlap the other calls; tested in BHK-21 cells. More than one record can exist for a structure, and the calls need not agree.

Assay: protection of cells from dengue 2 killing – plate reader, single concentration, primary screen (AID 651640);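 note: 0% = median of neutral control wells and 100% = median of positive control wells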
Conditions: DENV2-infected cells, cytopathic effect rescue, at 9.99 µM, active compounds read high

Row | SMILES | CPE inhibition
1 | N#C[C@H]1[C@H](c2ccccc2-c2ccccc2)[C@@H](CO)N1C(=O)Cc1cccnc1 | active: 35.1%
2 | Cc1cc(C)c(OCC(=O)OCC(=O)N2CCCc3ccccc32)c(C)c1 | inconclusive: 48.2%
3 | CCCNC(=O)[C@H]1[C@H](CO)[C@H]2Cn3c(ccc(-c4ccc(F)cc4)c3=O)[C@@H]1N2Cc1ccccc1F | inactive: -4.82%
4 | Cc1cc(Br)cn2c(Cc3ccsc3)c(-c3ccc(F)cc3)nc12 | inconclusive: 39.6%
5 | COc1ccc(NC(=O)CCCC(=O)NCCc2ccc(OC)c(OC)c2)cc1 | inconclusive: 32.9%
6 | CCOC(=O)[C@H]1[C@H]2COc3ccc(Br)cc3[C@@H]2N2C(=O)c3cc(F)c(F)cc3NC(=O)[C@@]12C | inconclusive: 66.3%
7 | c1ccc(COc2ncnc3c2ncn3CCCNCc2ccccn2)cc1 | inactive: -6.25%
8 | COc1ccc2c3c([nH]c2c1)[C@@H](CO)N(Cc1cccc(F)c1)CC31CN(Cc2ccccn2)C1 | active: 38.8%
9 | O=C(c1ccccc1F)N1C[C@@H]2[C@H](c3ccccc31)[C@@H](CO)N2C(=O)c1ccc(F)cc1 | inactive: 2.24%
10 | CN(C)c1ccnc(Nc2ccccc2)c1C#N | inactive: -0.825%
11 | COc1ccc(CNC(=O)C2(CC3CC(c4ccccc4)=NO3)CCN(C(=O)c3cccc(O)c3)CC2)cc1 (stereo not given) | inconclusive: 85.8%
12 | CC(=O)Oc1ccc(N2C(=O)c3cccc4c([N+](=O)[O-])ccc(c34)C2=O)cc1 | inactive: -2.51%
13 | COc1ccc(CNC(=O)C[C@@H]2CC[C@H]3[C@@H](COc4ccc(NC(=O)C5CC5)cc4C(=O)N3C)O2)cc1 | inconclusive: 82.7%
14 | C[C@@H]1CN(C(=O)c2ccc(OC3CCN(S(=O)(=O)N(C)C)CC3)cc2)C[C@H](C)O1 | inconclusive: 31.7%
15 | COc1ccc(Cl)cc1N1C(=O)CC(N2CCN(S(=O)(=O)c3ccccc3F)CC2)C1=O (stereo not given) | active: 37.5%
16 | CC(=O)N1[C@H](CO)[C@H](c2ccccc2)C12CN(C(=O)CN1CCOCC1)C2 | active: 83.1%
17 | C[C@H]1CN([C@@H](C)CO)C(=O)c2cccc(NC(=O)c3ccncc3)c2O[C@H]1CN(C)Cc1ccc(C(=O)Nc2ccccc2N)cc1 | active: 43.8%
18 | CCCCNC(=O)c1onc(CSc2cccc(OCC)c2)c1C(=O)O | active: 24%
19 | N#Cc1ccsc1NC(=O)COC(=O)c1ccc(NC(N)=O)cc1 | inactive: 4.5%
20 | C[C@@H]1CN([C@H](C)CO)C(=O)c2cc(-c3ccccc3)cnc2O[C@H]1CN(C)C | inconclusive: 22.3%
21 | C[C@H]1CN([C@@H](C)CO)C(=O)c2cc(-c3cccc(F)c3)cnc2O[C@H]1CN(C)C(=O)c1ccccn1 | inconclusive: 33.4%
22 | CCCCC[C@H](C)N1C[C@@H](COCc2ccccc2)Oc2cc(N3CC[C@H](N(C)C)C3)ccc2S1(=O)=O | active: 61%
23 | CN(C)C(=O)c1ccc(-c2ccc3c(c2)[C@H]2[C@H](CCN2C(=O)c2cnccn2)[C@H](CO)N3)cc1 | inconclusive: 50.6%
24 | COCC(=O)N1[C@H](CO)[C@H](c2ccccc2)[C@H]1CNC(=O)c1ccccn1 | inactive: -7.79%

Row | SMILES | CPE inhibition
25 | C[C@H](CO)N1C[C@H](C)[C@@H](CN(C)Cc2ccc(C(=O)O)cc2)Oc2c(NS(=O)(=O)c3cccs3)cccc2C1=O | inactive: 4.97% and inactive: -8.16%
26 | C[C@H](CO)N1C[C@H](C)[C@H](CN(C)C(=O)Cc2ccccc2)Oc2cc(-c3ccccc3)ccc2S1(=O)=O | inactive: -11.3%
27 | C[C@H]1CN([C@@H](C)CO)C(=O)Cc2cc(NC(=O)Nc3ccccc3)ccc2O[C@H]1CN(C)S(=O)(=O)c1cccs1 | active: 33%
28 | O=C(COC(=O)Cn1cc(C(F)(F)F)ccc1=O)Nc1ccc(Br)cc1F | inconclusive: 37.7%
29 | O=C(CCNC(=O)c1ccccc1Cl)Nc1cccc(S(=O)(=O)N2CCOCC2)c1 | inconclusive: 50.5%
30 | C[C@H](CO)N1C[C@H](C)[C@H](CN(C)C(=O)Nc2ccc(C(F)(F)F)cc2)OCCCC[C@H](C)Oc2ccc(NC(=O)C3CCCCC3)cc2C1=O | active: 21.9%
31 | COc1ccc(S(=O)(=O)Nc2ccc3c(c2)C(=O)N([C@H](C)CO)C[C@H](C)[C@H](CN(C)C(=O)CCCN(C)C)OCCCC[C@H](C)O3)cc1 | active: 21.6%
32 | C[C@@H]1CCCCO[C@@H](CN(C)Cc2ccncc2)[C@@H](C)CN([C@@H](C)CO)C(=O)c2cc(NC(=O)NC3CCCCC3)ccc2O1 | inconclusive: 61.2%
33 | CCOc1ccc(C(=O)CCC(=O)Nc2ccc(C)c(S(=O)(=O)N3CCCCC3)c2)cc1 | inconclusive: 48.6%
34 | C/C=C/c1ccc([C@H]2[C@@H](CO)N(CC3CCCCC3)[C@H]2CNC(C)=O)cc1 | inconclusive: 24%
35 | CO[C@H]1CN(C)C(=O)c2cc(NC(=O)Nc3ccccc3F)ccc2OC[C@@H](C)N(C)C[C@@H]1C | inactive: 2.61%
36 | C[C@@H]1CCCCO[C@H](CN(C)C(=O)NC2CCCCC2)[C@H](C)CN([C@@H](C)CO)C(=O)c2cc(NC(=O)C3CCCCC3)ccc2O1 | inactive: -2.82%
37 | C[C@@H](NC(=O)C[C@H]1C[C@H]2c3cc(NC(=O)c4ccc5c(c4)OCO5)ccc3O[C@H]2[C@@H](CO)O1)c1ccccc1 | inactive: 3.54%
38 | N#Cc1ccccc1OCC(=O)N(C1CCCCC1)C1CCS(=O)(=O)C1 (stereo not given) | inconclusive: 24.8%
39 | O=C(N=C1SC2CS(=O)(=O)CC2N1CCc1ccccc1)C1CC1 (stereo not given) | inconclusive: 36.1%
40 | O=C(CN1CCOCC1)NCC[C@H]1CC[C@H](NC(=O)Nc2ccc(F)cc2)[C@H](CO)O1 | inactive: -8.11%
41 | CCCN(C)C[C@H]1OCc2cnnn2CCCC(=O)N([C@H](C)CO)C[C@@H]1C | inconclusive: 42.3%
42 | C/C=C/c1ccc(C2[C@H]3CNC[C@@H]2N3C(=O)NCCC)cc1 (stereo not given in full) | active: 25.4%
43 | Cc1noc(C)c1S(=O)(=O)Nc1cccc2c1O[C@@H](CN(C)S(C)(=O)=O)[C@@H](C)CN([C@@H](C)CO)C2=O | inconclusive: 48.8%
44 | O=C(NN1C(=O)/C(=C/c2ccc(O)cc2)SC1=S)c1cccc(O)c1 | inconclusive: 21.2%
45 | O=C(CN1CCC(NC(=O)C2CCCCC2)CC1)Nc1ccccc1 | inconclusive: 46.1%
46 | COc1ccccc1S(=O)(=O)N(C)C[C@@H]1OCc2ccccc2-c2c(n(C)c3ccccc23)C(=O)N([C@@H](C)CO)C[C@@H]1C | inconclusive: 47.3%
47 | O=C(CCc1ccc(O)c(O)c1)N/N=C/c1cc2c(cc1[N+](=O)[O-])OCO2 | inconclusive: 26.5%
48 | Cc1cc(=O)[nH]c(N/N=C/c2c(C)nn(-c3ccc(F)cc3)c2Cl)n1 | inactive: 4.15%

Row | SMILES | CPE inhibition
49 | CC1(C(=O)NS(=O)(=O)c2ccc(Cl)s2)CCN1C(=O)Cc1ccc(Cl)cc1Cl (stereo not given) | inconclusive: 47.4%
50 | CCCCc1c(-c2ccccc2OC)ncn1CCc1ccccc1Cl | active: 32%
51 | COc1ccc(S(=O)(=O)Nc2ccc3c(c2)C(=O)N([C@@H](C)CO)C[C@@H](C)[C@@H](CN(C)Cc2ccncc2)OCCCC[C@H](C)O3)cc1 | active: 36.5%
52 | COc1cc(COC(=O)Oc2ccc(CNC(C)=O)cc2OC)c([N+](=O)[O-])cc1OC | inconclusive: 70.4%
53 | Cc1ccc(CN(C)C[C@@H]2OCc3cnnn3CCCC(=O)N([C@H](C)CO)C[C@H]2C)cc1 | inconclusive: 42.4%
54 | COCC#Cc1ccc2c(c1)O[C@@H](CN(C)Cc1ccccc1)[C@@H](C)CN([C@@H](C)CO)S2(=O)=O | inactive: -10.1%
55 | Cc1ccc(Sc2ncccc2N)cc1 | inconclusive: 41.4%
56 | CC=Cc1ccc2n(c1=O)C[C@H]1[C@H](CO)[C@@H](C(=O)NC3CCCC3)N(CCC)[C@@H]21 (mixture of isomers) | inactive: -8.35%
57 | C[C@H](CO)N1C[C@H](C)[C@@H](CN(C)C(=O)NC2CCCCC2)Oc2ccc(NC(=O)c3ccncc3)cc2CC1=O | inconclusive: 49.3%
58 | COc1ccc(C2=NOC(C3(S(=O)(=O)c4ccccc4)CC(O)C3)C2)cc1 (stereo not given) | inconclusive: 37.9%
59 | O=C(COC(=O)c1ccccc1C(=O)N1CCN(c2ccccc2)CC1)Nc1ccccc1 | inconclusive: 21.9%
60 | CN(C)c1nc(NCc2ccccc2)nc(N/N=C/c2ccc(Br)cc2)n1 | inconclusive: 20.3%
61 | OC[C@H]1[C@H](c2ccc(C#CC3(O)CCCC3)cc2)[C@H]2CN(Cc3ccccc3F)CCCCN21 | inactive: 5.13%
62 | O=C(C[C@H]1CC[C@H]2[C@@H](COC[C@H](O)CN2Cc2cocn2)O1)NCc1cccc(F)c1 | inactive: -8.39%
63 | O=C(C[C@H]1C[C@@H]2c3cc(NC(=O)Nc4ccccc4F)ccc3O[C@@H]2[C@H](CO)O1)NCCc1ccccc1 | inactive: -2.71%
64 | Cc1cc(C(=O)Nc2ccon2)c(C)o1 | inconclusive: 44.9%
65 | CN1C(=O)c2cc(NC(=O)C3CC3)ccc2OC[C@@H]2O[C@H](CC(=O)NC3CCC3)CC[C@H]21 | inactive: -7.52%
66 | CC(C)NC(=O)N1CCCCN2[C@@H](CO)[C@@H](c3ccc(C#CC4CC4)cc3)[C@@H]2C1 | active: 39.9%
67 | CCC(=O)N(C)C[C@H]1Oc2ncc(C#CC(C)C)cc2C(=O)N([C@H](C)CO)C[C@@H]1C | inconclusive: 21.2%
68 | COc1cc(/C=N/Nc2ncnc3sc4c(c23)CCC4)ccc1O | inactive: 0.763%
69 | O=C(CCc1ccccc1)N[C@@H]1c2ccccc2CC[C@@H]1OCc1ccccc1 | inconclusive: 64.2%
70 | CC(C)N=C(Nc1cccnc1)c1ccccc1 | inactive: -3.12%
